Experimental data from article PMC12851002.

Tested on: thrombin (human)
Experiment: pull-down (LASSO polymer; S-2238 activity and SDS-PAGE of supernatant)
Conditions: aptamer CSL (TBA and HD22) on P20, 90.1 ± 0.5% captured by the set, 98.2 ± 1.2% of captured released by release strand; LASSO pulldown on P20 under native conditions; native protein; folded or branched DNA

| Sequence | binding result |
| --- | --- |
| AGTCCGTGGTAGGGCAGGTTGGGGTGACTTATTCGCATTCTTAGATTAGAGCCTTATGAGCCGTC [Switchable HD22 thrombin aptamer catcher strand] | binds |
| GGTTGGTGTGGTTGGTTAGTGATGAGCGGGATTAGAGCCTTATGAGCCGTC [Switchable TBA thrombin aptamer catcher strand] | binds |

For at least one entry, the source does not settle the construct or the ends of the probe. At least one verdict rests on a figure or table, not on a statement of the authors.
